Assay results: PubChem BioAssay AID1259415 (National Center for Advancing Translational Sciences (NCATS), 2018)
In all, about 410,000 compounds went through this assay and about 18,000 (4.4%) were called active. Inconclusive results, whose numbers are uncertain, are shown with a selection of clear calls. Cut-off read from the data, not from the text of the source: active = activity change below about -60%; inconclusive = no clear call, values can overlap the other calls; inactive = above about -39%.

Experiment: qHTS Assay for inhibitors of the human cytomegalovirus (HCMV)
Settings: HFF cells, HCMV-luciferase reporter, 72 h; at 57.5 µM; stronger effect = lower value
Summary of the method: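 Two compound doses tested in HFFs infected with HCMV-luciferase, MOI 1 PFU/cell, 72 h at 37C. Lysate luminescence read with OneGlo; data normalized against buffer-only and 10uM Salinomycin inhibitor controls.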
% is set by controls: 0 for no effect and ±100 for the full control effect.

SMILES	activity change, negative = inhibition
O=S(=O)(ON(c1ccccc1)S(=O)(=O)c1ccccc1)c1ccccc1	inconclusive: -43%
O=C(CCCN1C(=O)C2CCCCN2C1=O)N1CCN(c2ccc([N+](=O)[O-])cc2)CC1 (stereo not drawn)	inconclusive: -44.9%
O=C(NCCCN1CCCCC1)C1CCCN(c2ncnc3c2nc2n3CCCCC2)C1 (stereo not drawn)	inconclusive: -40.4%
COc1ccc(CCN(Cc2cc3cc(C)cc(C)c3nc2Cl)C(=O)C2CC2)cc1	inconclusive: -45.2%
O=C(/C=C/c1ccccc1)Nc1ncn[nH]1	inactive: 7.73%
OC(c1ccc(F)c(F)c1)c1ncc(-c2cccc(C(F)(F)F)c2)[nH]1 (stereo not drawn)	inconclusive: -55.2%
O=C(NCC(c1cccnc1)N1CCN(c2ccc(F)cc2)CC1)c1ccc(F)cc1 (stereo not drawn)	inconclusive: -41.2%
Cc1ccccc1NC(=O)Cn1c(=O)n(CCCCCC(=O)NCc2ccc3c(c2)OCO3)c(=O)c2sccc21	inconclusive: -40.5%
O=C(Nc1nc(-c2ccc(S(=O)(=O)N3CCCC3)cc2)cs1)C1COc2ccccc2O1 (stereo not drawn)	inconclusive: -42.1%
CCC(=O)Nc1ccc(Cl)c(-c2nc3ncccc3o2)c1	inactive: 4.25%
COc1ccc2oc(=O)c(C(=O)OCc3ccccc3)cc2c1	inconclusive: -49.5%
CC(=O)N1CCc2c(sc3c2c(=O)n(CCc2ccccc2)c(=O)n3Cc2ccc(F)cc2)C1	active: -60.6%
CC(CN1CCOCC1)OC(=O)c1ccc(C(C)(C)C)cc1 (stereo not drawn)	inconclusive: -44.6%
Cc1nc(SCC(=O)NCC2CCCO2)nc(C)c1C (stereo not drawn)	inconclusive: -42.4%
Cc1ccc(OCC(COCc2ccccc2)NC(C)C)cc1 (stereo not drawn)	inactive: 63.3%
Cn1c(=O)c2nc(NCc3ccccc3)cnc2n(C)c1=O	inconclusive: -41.7%
CCCOC(=O)c1ccc(Oc2cn[nH]c2-c2ccc(O)cc2O)cc1	inconclusive: -50.5%
COc1cccc(Nc2nc(NCC3CCCO3)c3ccccc3n2)c1 (stereo not drawn)	inconclusive: -54.3%
CCCC12CN3CC(CCC)(CN(C1)C3c1ccc(OCc3ccccc3)cc1)C2=O (stereo not drawn)	inactive: 3.52%
O=S(=O)(Nc1ccc(O)c(CN2CCCCC2)c1)c1ccccc1	inactive: 62.1%
CC(=O)NC(Cc1ccc(C(C)C)cc1)C(=O)NC1CCN(C(=O)c2cccc(C)c2)CC1 (stereo not drawn)	inconclusive: -56.1%
CC(OC(=O)C1CC1)C(=O)Nc1cc(Cl)cc(Cl)c1 (stereo not drawn)	inconclusive: -45.3%
COc1cccc(N2CCN(C(=O)c3ccc(CS(=O)c4ccccc4Cl)o3)CC2)c1 (stereo not drawn)	active: -95.6%
O=c1[nH]c(=S)c2[nH]c(=S)n(-c3ccccc3)c2[nH]1	inactive: -7.03%
COc1ccc(CC(=O)NC(C)c2nnc(SCc3nc4ccccc4c(=O)[nH]3)n2C)cc1 (stereo not drawn)	inconclusive: -53.2%
CC(C)C[C@H]1CN(CCCC[C@H]2CNC(=O)C(=O)N2CCc2ccccc2)C(=O)C(=O)N1CCC1CCCCC1	inactive: -11.8%
CCOc1ccc(NC(=O)c2ccc(NC(=O)c3ccc(CN4CCOCC4)cc3)cc2)cc1	inconclusive: -51.3%

SMILES	activity change, negative = inhibition
CC(C)N(CCO)C(=O)CCc1nnc(Cc2cccc(C(F)(F)F)c2)o1	inactive: 31.6%
CN(C)c1ccc(C(CNC(=O)c2ccc(C(C)(C)C)cc2)N2CCCC2)cc1 (stereo not drawn)	inconclusive: -58.3%
COc1ccc(S(=O)(=O)N(C)C)cc1NC(=O)COC(=O)C1CC1	inactive: -21.4%
Cc1ccc(OCc2cc(C(=O)N(C)Cc3cnc4ccccn34)no2)cc1C	inconclusive: 0%
Cc1ccc(C(C(=O)NCc2ccco2)N(C(=O)CNC(=O)c2cccs2)c2c(C)cccc2C)cc1 (stereo not drawn)	inconclusive: -48.6%
Cc1cccc(C(=O)Nc2ccc(O)c3c(=O)cc(-c4ccccc4Cl)oc23)c1	inconclusive: -48.8%
Cc1ccc2c(c1)N(C(=O)NC1CCCCC1)C(C)(C)CC2C (stereo not drawn)	inconclusive: -48.1%
Cc1cccc(NC(=O)Cc2nnc(NC(=O)Nc3ccccc3F)s2)c1	inconclusive: -58.3%
COc1ccc2nc(C(F)(F)C(F)(F)F)c(C#N)c(N)c2c1	inconclusive: -41.8%
CCc1ccc(NC(=O)CSc2ccc(-c3sc(C)nc3C)nn2)cc1	inactive: -38.6%
Cc1ccc([C@H]2C[C@]34CN(Cc5ccccc5)S(=O)(=O)[C@H]3C[C@H]2O4)cc1	active: -88.4%
Clc1cccc(Nc2nccc3[nH]c(-c4ccncc4)nc23)c1	inactive: -5.26%
O=C(CCCN1C(=O)/C(=C/c2ccc3c(c2)OCO3)SC1=S)Nc1ccc(C(=O)O)cc1	inconclusive: -49.4%
O=C(O)CCN1C(=O)/C(=C/c2cn(-c3ccccc3)nc2-c2cccs2)SC1=S	active: -61.2%
COc1cc(OC)c2c(-c3cccc(-c4ccc(NC(C)=O)cc4)c3)cc(=O)oc2c1	inconclusive: -54.8%
Cc1ccc(C2CC(=O)C(C=NCCN3CCN(CC(=O)Nc4cc(C)cc(C)c4)CC3)=C(O)C2)cc1 (stereo not drawn)	inconclusive: -42.8%
CC(C)(C)c1ccc(CC(=O)N2CCC2(C)C(=O)Nc2cccc3ccccc23)cc1 (stereo not drawn)	inconclusive: -53.2%
COC(=O)c1c(NC(=O)C(C)(C)C)csc1C	inactive: -1.53%
COC(=O)C1=C(c2ccc(OC(F)(F)F)cc2)C[C@@H]2CC[C@H]1N2C(=O)N1CCCC1	inconclusive: -50.2%
CCc1noc(C)c1C(=O)N1CCN(c2cccc(Cl)c2)CC1	inconclusive: -49.4%
CCn1c(COc2ccc3c(c2)CCCC3)nnc1SCC(=O)Nc1ccc(C(=O)OC)cc1	inactive: -4.71%
Cc1cccc(CN2CCSc3sccc3C2=O)c1	inconclusive: -45%
CC1CN(C(=O)c2nn(C)cc2[N+](=O)[O-])CC(C)O1 (stereo not drawn)	inconclusive: -54.9%
N#Cc1ccc(OCC(O)CN2CCN(C(c3ccccc3)c3ccccc3)CC2)cc1 (stereo not drawn)	inactive: 1%
CC(C)N(C(=O)COC(=O)CNC(=O)c1ccc(Br)cc1)c1ccccc1	inconclusive: -42.9%
COc1ccc(C2c3c(-c4ccccc4)n[nH]c3C(=O)N2c2ccc(C(=O)O)cc2)c(OC)c1 (stereo not drawn)	inactive: -1.53%

Four entries out of the list, arranged by formula weight, rising:
SMILES	activity change, negative = inhibition
Cc1ccc(OCC(COCc2ccccc2)NC(C)C)cc1 (stereo not drawn)	inactive: 63.3%
CCc1noc(C)c1C(=O)N1CCN(c2cccc(Cl)c2)CC1	inconclusive: -49.4%
COc1cc(OC)c2c(-c3cccc(-c4ccc(NC(C)=O)cc4)c3)cc(=O)oc2c1	inconclusive: -54.8%
O=C(O)CCN1C(=O)/C(=C/c2cn(-c3ccccc3)nc2-c2cccs2)SC1=S	active: -61.2%
